Results deposited as PubChem BioAssay AID504764 (Drosophila RNAi Screening Center, 2011).

Aim: 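Genes whose knock-down alters Notch-dependent transcription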 (primary screen)
Cells: Drosophila Kc167 cells
Reagent: long dsRNA against Drosophila genes
Duration: about 5 days (4 days dsRNA, then 24 h after transfection)
Treatment: transfection of constitutively active membrane-tethered Notch lacking the extracellular domain, read 24 h later
Detection: 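Light from a Notch-responsive E(spl)m3 luciferase reporter under active Notch, with control-promoter and no-Notch reporter wells to normalise; raw counts from paired wells a and b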
Direction: induced reporter light, run 1, well a and induced reporter light, run 1, well b: higher = more light from the Notch target reporter with active Notch; control promoter light, run 1, well a and control promoter light, run 1, well b: higher = more light from the viral control promoter (cell number, transfection, viability); uninduced reporter light, run 1, well a: higher = more light from the Notch target reporter without active Notch
Call rule: 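Hit if the duplicate-averaged log2 ratio of induced to control-promoter light gives a plate-wise z beyond ±2, or induced to uninduced beyond ±1.8; weak-control or discordant-duplicate wells dropped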
Calls: active = modifier hit (raised or lowered Notch signal); inactive = not a hit
The deposit covers about 22,000 reagents; below is a random part of those that have a named target and a result. Of all reagents, 403 (1.9%) were called active. 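Unnormalised raw counts per well; ratio z-scores behind the hit calls and whether each hit raises or lowers signal are not deposited.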 Names joined by + are all predicted targets of the reagent. The record does not give: the amount of reagent.

no.	target gene	DRSC id	induced reporter light, run 1, well a	induced reporter light, run 1, well b	control promoter light, run 1, well a	control promoter light, run 1, well b	uninduced reporter light, run 1, well a	Outcome
1	Ccp84Ac	DRSC12588	1.22e5	1.30e5	1.22e5	1.01e5	7930	inactive
2	CG9021	DRSC03128	1.60e5	2.05e5	1.81e5	2.01e5	14365	inactive
3	CG8172	DRSC07089	1.83e5	1.96e5	3.17e5	2.23e5	18870	inactive
4	Lectin-galC1 (Galactose-specific C-type lectin)	DRSC03362	59390	35130	43365	67710	2770	inactive
5	Vps33B (Vacuolar protein sorting 33B)	DRSC15722	1.90e5	2.24e5	2.86e5	2.81e5	17225	inactive
6	CG14667	DRSC12253	85355	88375	52215	60695	5300	inactive
7	ATPsynG (ATP synthase, subunit G)	DRSC02928	1.09e5	1.30e5	56850	80970	16942	inactive
8	Ttd14 (TRPL translocation defect 14)	DRSC06632	83250	82845	1.56e5	1.80e5	7005	inactive
9	Ttd14 (TRPL translocation defect 14)	DRSC06942	1.23e5	1.19e5	1.21e5	1.01e5	8985	inactive
10	SRPK (SR Protein Kinase)	DRSC07090	1.09e5	98060	1.85e5	2.14e5	11282	inactive
11	Obp93a (Odorant-binding protein 93a)	DRSC15220	2.30e5	1.78e5	1.95e5	2.03e5	15310	inactive
12	CG12935 + Nop10	DRSC07025	1.56e5	1.49e5	1.92e5	1.55e5	14635	inactive
13	CG12662	DRSC17865	1.49e5	2.13e5	2.64e5	3.34e5	12505	inactive
14	pigeon	DRSC03565	2.44e5	1.99e5	2.04e5	2.12e5	20750	inactive
15	CG44422	DRSC18885	1.03e5	1.06e5	1.36e5	1.35e5	6085	inactive
16	CG44422	DRSC19380	64770	77025	99395	82620	9715	inactive
17	CG44422	DRSC19480	67345	58295	1.16e5	1.42e5	8085	inactive
18	CG18420	DRSC01954	1.44e5	1.46e5	1.37e5	1.42e5	11530	inactive
19	RabX2	DRSC18234	72840	62540	75405	69470	5420	inactive
20	St4 (Sulfotransferase 4)	DRSC07008	77415	65390	1.14e5	1.04e5	7782	inactive
21	CG14492	DRSC06463	85420	1.03e5	1.34e5	1.40e5	8230	inactive
22	CG14402	DRSC02386	1.01e5	60830	64275	81645	3385	inactive
23	CG4842	DRSC10453	1.29e5	1.10e5	2.16e5	2.23e5	6035	active
24	Dcr-2 (Dicer-2)	DRSC06992	1.14e5	1.11e5	1.48e5	1.22e5	9405	inactive
25	CG3652	DRSC00624	1.47e5	1.39e5	1.38e5	1.58e5	8670	inactive
26	dpr11 (defective proboscis extension response 11)	DRSC12561	75895	56880	54760	46020	3800	inactive
27	dpr11 (defective proboscis extension response 11)	DRSC12562	1.10e5	82890	65445	53335	7415	inactive
28	dpr11 (defective proboscis extension response 11)	DRSC12563	67500	75635	98390	81450	5480	inactive
29	CG34310	DRSC00943	1.22e5	1.47e5	2.53e5	2.42e5	11200	inactive
30	Ero1L (Endoplasmic reticulum oxidoreductin-1-like)	DRSC08660	1.11e5	1.55e5	91595	31475	12750	inactive
31	CG7707	DRSC10903	2.29e5	2.05e5	3.71e5	3.41e5	15440	active
32	CG3984	DRSC15530	1.90e5	2.11e5	1.84e5	1.91e5	17710	inactive
33	CG9114	DRSC20155	80870	77470	94170	98870	12130	inactive
34	Porin2	DRSC02584	1.32e5	1.82e5	1.04e5	1.26e5	21265	inactive
35	CG2321	DRSC15439	1.67e5	2.04e5	2.20e5	2.30e5	12115	inactive
36	CG3817	DRSC15515	57650	56030	78225	71980	4540	inactive
37	Cyp4d20 (Cytochrome P450 4d20)	DRSC08654	96545	1.16e5	1.28e5	1.38e5	6510	inactive
38	Taf11 (TBP-associated factor 11)	DRSC03448	1.24e5	1.23e5	52340	62640	16740	inactive
39	CG2747	DRSC15450	95195	98745	87300	58305	6675	inactive
40	Lgr4 (Leucine-rich repeat-containing G protein-coupled receptor 4)	DRSC18969	82265	73515	1.05e5	86665	6320	inactive
41	Lgr4 (Leucine-rich repeat-containing G protein-coupled receptor 4)	DRSC18970	77075	75015	1.06e5	96785	7935	inactive
42	Lgr4 (Leucine-rich repeat-containing G protein-coupled receptor 4)	DRSC19884	1.43e5	1.53e5	2.68e5	2.64e5	9115	inactive
43	CG30274	DRSC04171	1.97e5	1.43e5	1.75e5	1.81e5	12920	inactive
44	CG3165	DRSC00573	1.88e5	2.03e5	2.12e5	2.27e5	16792	inactive
45	Adgf-E (Adenosine deaminase-related growth factor E)	DRSC05973	87245	94185	1.20e5	1.17e5	7432	inactive
46	Aef1 (Adult enhancer factor 1)	DRSC11605	1.10e5	90960	71700	67945	5920	inactive
47	CG32655	DRSC18925	61150	46555	65415	63570	4375	inactive
48	CG9459	DRSC16496	74865	83780	65790	53585	5092	inactive
49	GstE10 (Glutathione S transferase E10)	DRSC06671	73725	70750	96655	91485	6465	inactive
50	CG15199	DRSC19646	1.23e5	1.34e5	2.66e5	2.21e5	8200	inactive

4 of these entries, set out differently:
target gene	DRSC id	induced reporter light, run 1, well a	induced reporter light, run 1, well b	control promoter light, run 1, well a	control promoter light, run 1, well b	uninduced reporter light, run 1, well a	Outcome
CG4842	DRSC10453	1.29e5	1.10e5	2.16e5	2.23e5	6035	active
Dcr-2 (Dicer-2)	DRSC06992	1.14e5	1.11e5	1.48e5	1.22e5	9405	inactive
CG3652	DRSC00624	1.47e5	1.39e5	1.38e5	1.58e5	8670	inactive
dpr11 (defective proboscis extension response 11)	DRSC12561	75895	56880	54760	46020	3800	inactive
